Values of other authors as cited in patent US20230390267A1, “TREATMENT REGIMENS FOR EARLY IDIOPATHIC PARKINSON'S DISEASE” (BIAL - PORTELA & CA., S.A., priority 2020, published 2023).

Test system: PD patients with motor fluctuations
Conditions: after 3 months of opicapone; cited from earlier work

**Q.** Which “patients with a decrease in levodopa dosing frequency” value does the source give for `Cc1c(Cl)c(C)[n+]([O-])c(Cl)c1-c1noc(-c2cc(O)c(O)c([N+](=O)[O-])c2)n1` [opicapone, 2,5-dichloro-3-[5-(3,4-dihydroxy-5-nitrophenyl)-1,2,4-oxadiazol-3-yl]-4,6-dimethylpyridine 1-oxide] here?
**A.** 12.5%

**Q.** And the “patients with an increase in levodopa dosing frequency” value?
**A.** 10.4%

**Q.** And the “patients with no change in total daily levodopa dosing frequency” value?
**A.** 77.1%
